PubChem BioAssay AID312 (DTP/NCI, 2004)
The list does not hold the whole screen: it covers a few groups of compounds. Not every dose and run of a compound is shown. T/C: endpoint of the treated group in % of that of the vehicle group. For survival time, this PubChem deposit counts one and a half times the control or more as active, and values a quarter to a half above the control carry no call in these data; other NCI protocols may use other cut-offs. Some entries show no survivor count and are marked so; the dose need not have been tolerated. Schedule codes are those of the source, read here as Q, the interval in days (D) or hours (H), X, the number of doses. Counts like (3×) stand for listed records that agree. Some entries were tested several times; their values stand side by side, smallest first.

Tested on: BDF1 mice, C1498 leukemia ip, median survival T/C
Experiment: NCI In Vivo Anticancer Drug Screen. Data for tumor model C1498 Myeloid Leukemia (intraperitoneal) in B6D2F1 (BDF1) mice
Conditions: T/C endpoint: median survival time, schedule: Q01DX010 (ip), vehicle: saline, higher T/C = longer survival
Protocol: The antitumor activity of compounds was measured in mice bearing transplantable tumors. Survival or tumor size were measured and the results are expressed as the measurement made in the treated group (T) divided by the measurement made in the vehicle treated control group (C). The tumor model used in this assay is C1498 Myeloid Leukemia (intraperitoneal) in B6D2F1 (BDF1) mice

SMILES	T/C (dose: 0.63 mg/kg/injection)	T/C (dose: 1.25 mg/kg/injection)	T/C (dose: 2.5 mg/kg/injection)	T/C (dose: 5.0 mg/kg/injection)	also measured
NC1CCCCC1.NP(=O)(O)N(CCCl)CCCl					T/C (dose: 15.6 mg/kg/injection): 127 % of control [survivor count not shown]; T/C (dose: 31.3 mg/kg/injection): 168 % of control [survivor count not shown]; T/C (dose: 62.5 mg/kg/injection): 190 % of control [survivor count not shown]
O=C(O)CN(CCCl)CCCl	113 % of control [survivor count not shown]	127 % of control [survivor count not shown]	136 % of control [survivor count not shown]	100 % of control [survivor count not shown]	
ClCCN(CCCl)Cc1nc2ccccc2[nH]1		109 % of control [survivor count not shown] (2×)	127 [survivor count not shown] and 136 % of control [survivor count not shown]	145 [survivor count not shown] and 154 % of control [survivor count not shown]	T/C (dose: 10.0 mg/kg/injection): 104 [survivor count not shown] and 195 % of control [survivor count not shown]
ClCCNCCCl					T/C (dose: 18.8 mg/kg/injection): 104 [survivor count not shown] and 109 % of control [survivor count not shown]; T/C (dose: 37.5 mg/kg/injection): 136 % of control [survivor count not shown] (2×); T/C (dose: 75.0 mg/kg/injection): 109 [survivor count not shown] and 118 % of control [survivor count not shown]
CC(C(=O)O)N(CCCl)CCCl (configuration not stated)					T/C (dose: 0.5 mg/kg/injection): 127 % of control [survivor count not shown]; T/C (dose: 1.0 mg/kg/injection): 131 % of control [survivor count not shown]; T/C (dose: 2.0 mg/kg/injection): 154 % of control [survivor count not shown]; T/C (dose: 4.0 mg/kg/injection): 136 % of control [survivor count not shown]
NC(Cc1cccc(N(CCCl)CCCl)c1)C(=O)O (configuration not stated)	122 % of control [survivor count not shown]	127 [survivor count not shown] and 136 % of control [survivor count not shown]	140 [survivor count not shown] and 145 % of control [survivor count not shown]	131 [survivor count not shown] and 140 % of control [survivor count not shown]	
